In patent publication US9073929B2, “Aldosterone synthase inhibitors” (ElexoPharm GmbH, priority 2011, dated 2015):
Some results were stated once for a whole list of compounds, not compound by compound.

Target: T1, human CYP11B2 (Homo sapiens, UniProt P19099)
T1 construct: expressed in transfected cells; host or cells: V79 cells (clone V79-hCYP11B2-CLE9)
T1 sequence (P19099 25-503): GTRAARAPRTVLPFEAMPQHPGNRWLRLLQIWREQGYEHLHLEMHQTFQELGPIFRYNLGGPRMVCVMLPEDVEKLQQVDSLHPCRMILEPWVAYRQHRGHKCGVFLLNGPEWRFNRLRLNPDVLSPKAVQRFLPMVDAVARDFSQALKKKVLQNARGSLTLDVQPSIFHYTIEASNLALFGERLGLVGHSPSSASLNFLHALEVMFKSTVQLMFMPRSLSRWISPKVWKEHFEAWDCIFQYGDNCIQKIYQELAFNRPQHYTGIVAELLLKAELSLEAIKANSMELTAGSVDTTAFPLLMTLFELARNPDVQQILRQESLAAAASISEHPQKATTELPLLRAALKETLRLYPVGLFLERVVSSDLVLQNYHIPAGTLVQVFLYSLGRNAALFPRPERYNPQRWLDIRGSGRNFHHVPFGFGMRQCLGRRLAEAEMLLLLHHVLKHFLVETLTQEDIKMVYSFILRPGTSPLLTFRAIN
Assay: V79-Human-CYP11B2 cell assay, modified protocol (600,000 cells/mL)
Type: cell-based
Conditions: 0.30 μl inhibitor
Experimental: V79 cell lines stably expressing the either the human CYP11B2 or the human CYP11B1 enzyme were generated using a standard transfection protocol. V79 cells were transfected with plasmids pTriEx3-Hygro-hCyp11B2 or pTriEx3-Hygro-hCyp11B1 using Lipofectamine2000 reagent. V79 cells that stably express the human CYP11B2 or human CYP11B1 enzyme were selected for and maintained in DMEM supplemented with 10% FBS and 400 μg/mL hygromycin for ˜2 weeks. Single cell clones were generated by infinite dilution in DMEM supplemented with 10% FBS and 400 μg/mL hygromycin until single colonies were obtained. […] For testing of inhibitors, cells were harvested at 80% confluency with 0.5% Trypsan-EDTA, washed once in PBS, and reconstituted in DMEM+0.1% BSA media at a cell concentration of 400,000 cells/mL. 25 μl of cells were added to a 384 well tissue culture treated plate and mixed with 0.25 μl of inhibitor or DMSO (1% final DMSO concentration) for 1 hour at 37° C., 5% CO2. After pre-incubation with inhibitor, the reaction was initiated by adding 5 μl of substrate (final concentration of 125 nM 11-deoxycorticosterone for the CYP11B2 assay or 250 nM 11-deoxycortisol for the CYP11B1 assay). The reaction was carried out for 3 hours at 37° C., 5% CO2 and was stopped by harvesting the supernatants. The amount of product in the supernatant (aldosterone for CYP11B2 assay and cortisol for the CYP11B1 assay) was measured using HTRF-based assay kit (Aldosterone HTRF-CisBio#64ALDPEB, Cortisol HTRF-CisBio #631DC002-CORT). IC50's for the inhibitor were determined by plotting the amount of product formed against the concentration of inhibitor using sigmoidal dose-response curve (variable slope) fit in GraphPad.
For the CYP11B2 assay, cells were reconstituted in DMEM+0.1% BSA media at a cell concentration of 600,000 cells/mL and for the CYP11B1 assay cells were reconstituted in DMEM+0.1% BSA media at a cell concentration of 280,000 cells/mL. 25 μl of cells were added to a 384 well tissue culture treated plate and mixed with 0.30 μl of inhibitor or DMSO (1% final DMSO concentration) for 1 hour at 37° C., 5% CO2.

Compound | IC50 [µM] | also measured
Cc1nnc2n1-c1c(Cl)cc(-c3cncc(NS(=O)(=O)c4ccccc4)c3)cc1CC2 [Example 108, N-(5-(9-chloro-1-methyl-4,5-dihydro-[1,2,4]triazolo[4,3-a]quinolin-7-yl)pyridin-3-yl)benzenesulfonamide] | < 10 | 
Cc1ccncc1-c1cc(F)c2c(c1)CCc1nnc(C)n1-2 [Example 109, 9-fluoro-1-methyl-7-(4-methylpyridin-3-yl)-4,5-dihydro-[1,2,4]triazolo[4,3-a]quinoline] | < 10 | 
Cc1nnc2n1-c1cc(Cl)c(-c3cncc(C#N)c3)cc1CC2 [Example 110, 5-(8-chloro-1-methyl-4,5-dihydro-[1,2,4]triazolo[4,3-a]quinolin-7-yl)nicotinonitrile] | < 10 | 
Cc1nnc2n1-c1cc(Cl)c(-c3cccnc3)cc1CC2 [Example 111, 8-chloro-1-methyl-7-(pyridin-3-yl)-4,5-dihydro-[1,2,4]triazolo[4,3-a]quinoline] | < 10 | 
Cc1cncc(-c2cc3c(cc2Cl)-n2c(C)nnc2CC3)c1C [Example 112, 8-chloro-7-(4,5-dimethyl-pyridin-3-yl)-1-methyl-4,5-dihydro-[1,2,4]triazolo[4,3-a]quinoline] | < 10 | 
Cc1nnc2n1-c1cc(Cl)c(-c3cncc4ccccc34)cc1CC2 [Example 113, 8-chloro-7-(isoquinolin-4-yl)-1-methyl-4,5-dihydro-[1,2,4]triazolo[4,3-a]quinoline] |  | IC50 (listed as compound 113): < 10 µM
Cc1nnc2n1-c1cc(Cl)c(-c3cncc(Cl)c3)cc1CC2 [Example 114, 8-chloro-7-(5-chloro-pyridin-3-yl)-1-methyl-4,5-dihydro-[1,2,4]triazolo[4,3-a]quinoline] | < 10 | 
Cc1nnc2n1-c1cc(Cl)c(-c3cncc(F)c3)cc1CC2 [Example 115, 8-chloro-7-(5-fluoro-pyridin-3-yl)-1-methyl-4,5-dihydro-[1,2,4]triazolo[4,3-a]quinoline] | < 10 | 
CCc1c(F)cncc1-c1cc2c(cc1Cl)-n1c(C)nnc1CC2 [Example 116, 8-chloro-7-(4-ethyl-5-fluoropyridin-3-yl)-1-methyl-4,5-dihydro-[1,2,4]triazolo[4,3-a]quinoline] | < 10 | 
Cc1nnc2n1-c1cc(Cl)c(-c3cncc(C(F)(F)F)c3)cc1CC2 [Example 117, 8-chloro-1-methyl-7-(5-(trifluoromethyl)pyridin-3-yl)-4,5-dihydro-[1,2,4] triazolo[4,3-a]quinoline] | < 10 | 
Cc1nnc2n1-c1cc(Cl)c(-c3cncc(C(C)(C)O)c3)cc1CC2 [Example 118, 2-(5-(8-chloro-1-methyl-4,5-dihydro-[1,2,4]triazolo [4,3-a]quinolin-7-yl)pyridin-3-yl)propan-2-ol] | < 10 | 
Cc1nnc2n1-c1cc(Cl)c(-c3cncc([C@](C)(O)C(F)(F)F)c3)cc1CC2 [Example 119, (S)-2-(5-(8-chloro-1-methyl-4,5-dihydro-[1,2,4]triazolo[4,3-a]quionolin-7-yl)pyridin-3-yl)-1,1,1-trifluoropropan-2-ol] | < 10 | 
Cc1c(Cl)cncc1-c1cc2c(cc1Cl)-n1c(C)nnc1CC2 [Example 120, 8-chloro-7-(5-chloro-4-methylpyridin-3-yl)-1-methyl-4,5-dihydro-[1,2,4] triazolo[4,3-a]quinoline] | < 10 | 
Cc1nnc2n1-c1cc(Cl)c(-c3cncc(F)c3Cl)cc1CC2 [Example 121, 8-chloro-7-(4-chloro-5-fluoropyridin-3-yl)-1-methyl-4,5-dihydro-[1,2,4] triazolo[4,3-a]quinoline] | < 10 | 
COc1c(C)cncc1-c1cc2c(cc1F)-n1c(C)nnc1CC2 [Example 122, 8-fluoro-7-(4-methoxy-5-methylpyridin-3-yl)-1-methyl-4,5-dihydro-[1,2,4]triazolo[4,3-a]quinoline] |  | IC50 (listed as compound 122): < 10 µM
Cc1c(C#N)cncc1-c1cc2c(cc1F)-n1c(C)nnc1CC2 [Example 125, 5-(8-fluoro-1-methyl-4,5-dihydro-[1,2,4]triazolo[4,3-a]quinolin-7-yl)-4-methylnicotinonitrile] | < 10 | 

Compound | IC50 [µM] | also measured
Cc1nnc2n1-c1cc(F)c(-c3cnccc3C3CC3)cc1CC2 [Example 126, 7-(4-cyclopropylpyridin-3-yl)-8-fluoro-1-methyl-4,5-dihydro-[1,2,4]triazolo[4,3-a]quinoline] | < 10 | 
Cc1nnc2n1-c1cc(F)c(-c3cncc(C(F)(F)F)c3)cc1CC2 [Example 127, 8-fluoro-1-methyl-7-(5-(trifluoromethyl)pyridin-3-yl)-4,5-dihydro-[1,2,4]triazolo[4,3-a]quinoline] | < 10 | 
Cc1ccncc1-c1cc2c(cc1F)-n1c(C)nnc1CC2 [Example 128, 8-fluoro-1-methyl-7-(4-methylpyridin-3-yl)-4,5-dihydro-[1,2,4]triazolo[4,3-a]quinoline] | < 10 | 
Cc1c(F)cncc1-c1cc2c(cc1F)-n1c(C)nnc1CC2 [Example 129, 8-fluoro-7-(5-fluoro-4-methylpyridin-3-yl)-1-methyl-4,5-dihydro-[1,2,4] triazolo[4,3-a]quinoline] | < 10 | 
Cc1nnc2n1-c1cc(F)c(-c3cnccc3C(F)(F)F)cc1CC2 [Example 130, 8-fluoro-1-methyl-7-(4-(trifluoromethyl)pyridin-3-yl)-4,5-dihydro-[1,2,4] triazolo[4,3-a]quinoline] | < 10 | 
Cc1nnc2n1-c1cc(F)c(-c3cncc(C#N)c3)cc1CC2 [Example 131, 5-(8-fluoro-1-methyl-4,5-dihydro-[1,2,4]triazolo[4,3-a]quinolin-7-yl)nicotinonitrile] | < 10 | 
Cc1nnc2n1-c1cc(F)c(-c3cncc4ccc(F)cc34)cc1CC2 [Example 132, 8-fluoro-7-(6-fluoro-isoquinolin-4-yl)-1-methyl-4,5-dihydro-[1,2,4]triazolo [4,3-a]quinoline] | < 10 | 
Cc1nnc2n1-c1cc(F)c(-c3cncc4cccc(F)c34)cc1CC2 [Example 133, 8-fluoro-7-(5-fluoro-isoquinolin-4-yl)-1-methyl-4,5-dihydro-[1,2,4]triazolo [4,3-a]quinoline] | < 10 | 
Cc1cncc(-c2cc3c(cc2F)-n2c(C)nnc2CC3)c1C [Example 134, 7-(4,5-dimethylpyridin-3-yl)-8-fluoro-1-methyl-4,5-dihydro-[1,2,4]triazolo[4,3-a]quinoline] | < 10 | 
Cc1nnc2n1-c1cc(F)c(-c3cncc(F)c3)cc1CC2 [Example 135, 8-fluoro-7-(5-fluoro-pyridin-3-yl)-1-methyl-4,5-dihydro-[1,2,4]triazolo[4,3-a]quinoline] | < 10 | 
Cc1nnc2n1-c1cc(F)c(-c3cncc4cc(F)ccc34)cc1CC2 [Example 137, 8-fluoro-7-(7-fluoro-isoquinolin-4-yl)-1-methyl-4,5-dihydro-[1,2,4]triazolo [4,3-a]quinoline] | < 10 | 
Cc1nnc2n1-c1cc(F)c(-c3cccnc3)cc1CC2 [Example 138, 8-fluoro-1-methyl-7-(pyridin-3-yl)-4,5-dihydro-[1,2,4]triazolo[4,3-a]quinoline] | < 10 | 
Cc1nnc2n1-c1cc(F)c(-c3cncc4c(F)cccc34)cc1CC2 [Example 139, 8-fluoro-7-(8-fluoroisoquinolin-4-yl)-1-methyl-4,5-dihydro-[1,2,4]triazolo[4,3-a]quinoline] | < 10 | 
CCc1c(F)cncc1-c1cc2c(cc1F)-n1c(C)nnc1CC2 [Example 140, 7-(4-ethyl-5-fluoropyridin-3-yl)-8-fluoro-1-methyl-4,5-dihydro-[1,2,4]triazolo [4,3-a]quinoline] | < 10 | 
Cc1nnc2n1-c1cc(F)c(-c3cncc(F)c3Cl)cc1CC2 [Example 141, 7-(4-chloro-5-fluoropyridin-3-yl)-8-fluoro-1-methyl-4,5-dihydro-[1,2,4]triazolo[4,3-a]quinoline] | < 10 | 
